Here are results for 1 substance from PMC10486081.

Amino acid sequences for entries named in this document (tags omitted).
UniProt O95835: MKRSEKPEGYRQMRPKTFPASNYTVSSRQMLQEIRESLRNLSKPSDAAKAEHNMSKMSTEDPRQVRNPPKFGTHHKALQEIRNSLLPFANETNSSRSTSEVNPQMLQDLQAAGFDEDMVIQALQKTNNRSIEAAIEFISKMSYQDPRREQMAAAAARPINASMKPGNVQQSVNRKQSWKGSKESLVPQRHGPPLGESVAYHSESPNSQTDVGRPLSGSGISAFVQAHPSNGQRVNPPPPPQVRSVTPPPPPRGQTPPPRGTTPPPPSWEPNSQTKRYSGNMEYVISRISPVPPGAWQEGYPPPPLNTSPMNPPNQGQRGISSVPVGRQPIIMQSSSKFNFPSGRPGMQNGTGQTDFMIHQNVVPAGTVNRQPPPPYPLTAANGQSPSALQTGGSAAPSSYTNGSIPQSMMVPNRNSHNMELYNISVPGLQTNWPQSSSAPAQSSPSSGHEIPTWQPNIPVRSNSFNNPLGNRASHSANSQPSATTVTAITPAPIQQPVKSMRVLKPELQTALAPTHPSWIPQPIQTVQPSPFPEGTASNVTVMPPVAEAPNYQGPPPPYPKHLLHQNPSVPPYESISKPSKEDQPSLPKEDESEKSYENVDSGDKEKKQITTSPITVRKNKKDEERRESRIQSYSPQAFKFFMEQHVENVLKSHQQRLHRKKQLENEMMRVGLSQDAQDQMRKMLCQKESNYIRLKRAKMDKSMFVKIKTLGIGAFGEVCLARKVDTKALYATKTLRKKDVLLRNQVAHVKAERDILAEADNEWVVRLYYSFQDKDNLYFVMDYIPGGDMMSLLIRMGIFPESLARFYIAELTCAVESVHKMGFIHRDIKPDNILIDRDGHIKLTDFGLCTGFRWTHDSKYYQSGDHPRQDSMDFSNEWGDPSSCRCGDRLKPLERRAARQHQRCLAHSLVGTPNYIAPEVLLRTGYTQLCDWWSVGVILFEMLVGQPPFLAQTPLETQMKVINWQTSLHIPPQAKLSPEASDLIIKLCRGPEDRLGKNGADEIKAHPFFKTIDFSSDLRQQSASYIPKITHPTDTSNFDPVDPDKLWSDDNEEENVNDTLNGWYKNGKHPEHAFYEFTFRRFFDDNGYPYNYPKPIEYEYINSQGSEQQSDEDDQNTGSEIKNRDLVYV
UniProt O43791: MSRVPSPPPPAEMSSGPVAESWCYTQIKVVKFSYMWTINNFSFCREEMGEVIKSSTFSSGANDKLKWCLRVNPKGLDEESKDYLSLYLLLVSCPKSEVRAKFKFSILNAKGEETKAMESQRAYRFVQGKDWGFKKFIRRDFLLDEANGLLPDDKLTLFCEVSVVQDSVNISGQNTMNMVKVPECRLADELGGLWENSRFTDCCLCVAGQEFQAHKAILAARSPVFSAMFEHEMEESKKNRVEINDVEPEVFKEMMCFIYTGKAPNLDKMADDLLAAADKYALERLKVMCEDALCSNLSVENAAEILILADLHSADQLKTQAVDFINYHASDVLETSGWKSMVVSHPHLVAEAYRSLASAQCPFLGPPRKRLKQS

The target of the test is LATS1 (Large tumor suppressor kinase 1), endogenous in bladder cancer cells (human (endogenous in T24)) (UniProt O95835). Kind of test: affinity purification with mass spectrometry; IP with LATS1 antibodies in T24 cells followed by mass spectrometric detection.

These are yes or no findings as the source states them, for the method shown. Binding seen in cells or lysates may run through a third protein. These calls come from enrichment with a bait or labelling near it, and not all partners need be listed.

On to “SPOP (speckle-type POZ, E3 ubiquitin ligase adapter), endogenous in bladder cancer cells (from UniProt O43791 1-374)”, for which the binding entry is “binds”.
